Measurements reported in article doi:10.1101/2023.10.17.562819.
These are yes or no findings as the source states them, for the method shown. Binding seen in cells or lysates may run through a third protein. Binding calls can cover weak binding; strength is not graded here.

Target: Ct226-FLAG (Chlamydia trachomatis)
Test: co-IP

B1: leucine rich repeat Flightless-1 interacting protein 1 (protein, UniProt Q32MZ4 1-808)
chain: MTSPAAAQSREIDCLSPEAQKLAEARLAAKRAARAEAREIRMKELERQQKEEDSERYSRRSRRNTSASDEDERMSVGSRGSLRVEERPEKDFTEKGSRNMPGLSAATLASLGGTSSRRGSGDTSISIDTEASIREIKELNELKDQIQDVEGKYMQGLKEMKDSLAEVEEKYKKAMVSNAQLDNEKTNFMYQVDTLKDMLLELEEQLAESRRQYEEKNKEFEREKHAHSILQFQFAEVKEALKQREEMLEKHGIILNSEIATNGETSDTLNNVGYQGPTKMTKEELNALKSTGDGTLGRASEVEVKNEIVANVGKREILHNTEKEQHTEDTVKDCVDIEVFPAGENTEDQKSSEDTAPFLGTLAGATYEEQVQSQILESSSLPENTVQVESNEVMGAPDDRTRTPLEPSNCWSDLDGGNHTENVGEAAVTQVEEQAGTVASCPLGHSDDTVYHDDKCMVEVPQELETSTGHSLEKEFTNQEAAEPKEVPAHSTEVGRDHNEEEGEETGLRDEKPIKTEVPGSPAGTEGNCQEATGPSTVDTQNEPLDMKEPDEEKSDQQGEALDSSQKKTKNKKKKNKKKKSPVPVETLKDVKKELTYQNTDLSEIKEEEQVKSTDRKSAVEAQNEVTENPKQKIAAESSENVDCPENPKIKLDGKLDQEGDDVQTAAEEVLADGDTLDFEDDTVQSSGPRAGGEELDEGVAKDNAKIDGATQSSPAEPKSEDADRCTLPEHESPSQDISDACEAESTERCEMSEHPSQTVRKALDSNSLENDDLSAPGREPGHFNPESREDTRGGNEKGKSKEDCTMS
In the case of B1, the binding is reported as “binds”.
